In publication PMC4322365, “A Ligand-observed Mass Spectrometry Approach Integrated into the Fragment Based Lead Discovery Pipeline” (Scientific Reports, 2015):

Test: Recovery rate of fragment after ultrafiltration (nonspecific binding to filter membrane)
Conditions: MS intensity of the fragment before and after ultrafiltration

| SMILES | Recovery rate (%) |
| --- | --- |
| N#CCc1ccc(O)cc1 [Fragment 114] | 76.2 |
| N#CC(c1ccccc1)N1CCOCC1 (centres unmarked) [Fragment 328] | 57.4 |
